The source of these data is PubChem BioAssay AID1347423 (Functional Genomics Laboratory (NCATS/FGL), 2020).

The whole screen tested about 52,000 sequences, of which about 210 (0.4%) were called active.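 The calls were made as follows: active = gene whose silencing raises cell survival under the drug, median off-target-corrected z-score across its silencing RNAs 2 or more; inactive = the rest.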 This is one part of the list.

This test in a line: Resistance to Poly (ADP-Ribose) Polymerase inhibitor: Gene Identification via Genome-wide siRNA Screen. As to conditions: mouse BRCA2 R2336H ES cells, olaparib, CellTiter-Glo viability; hits give high values. In outline:
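Mouse BRCA2 R2336H ES cells were reverse-transfected with siRNA (20 nM final), treated at 48 h with 500 nM olaparib, and read by CellTiter-Glo after 72 h. Scores: MAD-based z per siRNA, median per gene, seed off-target correction.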
GGCUGUCAUCAUGUUGGUUTT against Slc5a4a: the z-score was inactive: -2.22.

As to GGUUCAGCUAAAGGAUUUATT against BC021875, the z-score was inactive: -0.72.

As to GGUGAGAAAGAUUGAGAUUTT against Pdgfb, the z-score was inactive: 0.0316.

As for CCCUAUUCUUUUUGUCAUGTT against Olfr105, the z-score is inactive: -0.267.

As to GAAAUGUUUGACACAACCUTT against Raet1b, the z-score was inactive: -0.107.

Turning to GCACCUGUAGUUUUAAGCGTT against Traf3, the z-score was inactive: 0.149.

On to CCCUACAUUCUGUAUAGCCTT against Olfr474, for which the z-score was inactive: 0.0524.

CCUCAUGGUGAUGAUAUCCTT against Taar6: the z-score is inactive: 0.298.

Regarding “GGUCCUCUCAGACAUGAAGTT against 2900092E17Rik”, the z-score was inactive: -0.939.

Take GGGCAUCUCAGAUUUAGCUTT against Cct3: the z-score was inactive: -2.52.

As to GGACAACAAGGCUUGCUACTT against Plxna2, the z-score is inactive: 0.251.

In the case of “CCAUCUCUUACUAUCCAUGTT against 2310016A09Rik”, the z-score was inactive: 1.16.

Consider GGUAUGUAGGAAUUACAGUTT against AI606181, for which the z-score is inactive: 0.573.

GCAGUUACAGGAAAUCGAGTT against Cdr2: the z-score is inactive: 0.167.

As to GGGAUCAGUCUACACGUCGTT against Irx2, the z-score was inactive: -1.94.

Turning to GCCAUCUAGCUACUGACACTT against Tubb3, the z-score was inactive: 0.0913.

GGUUAAAAUUUGGAAUCUGTT against Gm83: the z-score was inactive: 0.697.

As to CCCUGAUCUUGUGAGAAUUTT against Gm606, the z-score is inactive: -0.784.

In the case of “GUUUACCUAGUCUUUGAAUTT against 2610028H07Rik”, the z-score was inactive: 1.23.

“GGCAUUUACUACUUCAUAGTT against 4921501M20Rik”: the z-score is inactive: -0.899.

With GGCAAAAGCACUGAAGAGATT against Ar, the z-score was inactive: -1.26.

As to “CCCGAAACAUCAUCAAGUATT against 4832415H08Rik”, the z-score was inactive: 0.131.

For the sequence GGUUCAUUUUAACUGUAGATT against Pira3, the z-score is inactive: -0.217.

For the sequence GGAGAGCUCUGGAAGCUUUTT against Ppara, the z-score is inactive: 0.333.

Consider GGAUUCCGUGCAUUUGUGATT against Atad3a, for which the z-score is inactive: -0.388.

In the case of CCACCUUGGUCUAAUUUCUTT against Slitrk4, the z-score is inactive: -1.52.

With CCUGUUGAGUACUGUGCUGTT against Olfr987, the z-score was inactive: -0.621.

As to GCCAGAUAGACAAUGAAGUTT against Gm672, the z-score was inactive: 0.277.

Regarding GGAAUCACGUUCCAAACAUTT against V1ra1, the z-score is inactive: 0.063.

As to CGUGGACUUAAUAUUUCAGTT against Btbd7, the z-score was inactive: 0.564.

For the sequence “GGCCAAAGAGGAGGAAAACTT against D5Bwg0834e”, the z-score was inactive: -0.569.

Turning to GCUCAAUUCUGCAAGACAUTT against Olfr543, the z-score is inactive: 0.0596.

In the case of UGCAAAGAUUGUCUCCUCCTT against Olfr255, the z-score was inactive: -0.653.

As for GGACACAGCAAGAAGAUACTT against Wfdc12, the z-score is inactive: -0.22.

Regarding GGAAGACUUUAUGUGCACCTT against Tbx4, the z-score is inactive: -0.123.

In the case of GGCCCUGGUAGCUUAUUACTT against Rps16, the z-score is inactive: -3.04.

CGUAGUCAUUACUCUAAUATT against Capns1: the z-score is inactive: 0.436.

GGCUAUUUCGAUGCUCUGGTT against Baiap2: the z-score is inactive: 0.914.

As for GGCUAUCACAGGGAUCCUATT against Ppl, the z-score was inactive: -0.0942.

Consider GGCUUUACACUGCUAGCUCTT against Fbxl2, for which the z-score is inactive: -0.0882.

In the case of CGAUCAUAUACAGACACAUTT against Ms4a4d, the z-score was inactive: -0.948.

Turning to GGGCAUCUCUCCUGAAUACTT against Mbip, the z-score was inactive: -0.419.

In the case of GGAAACAUCGCCUCAAACATT against Gjb4, the z-score was inactive: 0.672.

Turning to “GGCCAAGAUAGAUAAUAACTT against 4930572I07Rik”, the z-score was inactive: 0.987.

For “GGUCACGAACAUUUUUGCUTT against 2010200O16Rik”, the z-score is inactive: -0.301.

Regarding CCACCGGGAGAACAAUCAATT against Eif2c2, the z-score is inactive: 0.428.

As to GCUGUAUCCAGCUUUUCGGTT against Tcfe2a, the z-score was inactive: -0.853.

For the sequence “GGGCCUGUGGAAUUUGUUCTT against 5730439E10Rik”, the z-score was inactive: -0.0695.

Turning to GGCGGUGUUUUACUACAAGTT against Capn7, the z-score is inactive: -0.547.

As for GGACAUGAUUUUAUGCUUCTT against Zfp496, the z-score is inactive: -0.0651.

For the sequence GAGCAUCGACAACCUCUCUTT against Hba-x, the z-score was inactive: -1.21.

Regarding GGCCACAAUGGAUCAGAUGTT against Colm, the z-score is inactive: -1.55.

Regarding GCGAACACUACUAUCGUUATT against Ipo11, the z-score was inactive: 0.849.

“CCGGGUCAUUAUCUAUCAATT against 2410104I19Rik”: the z-score was inactive: -0.455.

Consider GCGGGUUUAUUGUCUAGAATT against Mfn2, for which the z-score was inactive: -1.05.

On to CCAUUUGGCUCACAGUACGTT against AL033326, for which the z-score was inactive: -1.44.

Consider “GGUGUCCCUUAAUGUGUCCTT against 9530025L16Rik”, for which the z-score is inactive: 1.02.

With GGCCCAAUAGACAUAUAGCTT against Trim21, the z-score was inactive: -0.0297.

Turning to GGAGUGCUUAAAAUUCAAGTT against Bcap29, the z-score is inactive: 1.41.

In the case of GGAGUAUUGGAAGUUACAATT against Ccnc, the z-score is inactive: 0.837.

On to GGUAUCUCCAGUCCAGAGUTT against Mrpl34, for which the z-score is inactive: 0.31.

In the case of “GGGAGUUAGAUCUGUAUAATT against 1700011F14Rik”, the z-score is inactive: -0.515.

As for GGAAAGAGAUGAUUGAAAUTT against Cts3, the z-score was inactive: 0.359.

Take GCCAACCAGGAUUUUACAATT against Fga: the z-score is inactive: -0.313.

In the case of “GCUUAUAGUUCAGUUUUUGTT against 2810013E07Rik”, the z-score is inactive: -0.504.

Take GGACAGAACUGGCUUCCAUTT against Ctrb1: the z-score was inactive: 2.05.

For GCAUGAAUUUCGACAACCCTT against Lrp8, the z-score is inactive: 0.838.

As to CCAAGAGGGCGAUCAAAUGTT against Grtp1, the z-score was inactive: -1.83.

As for “GCAUCACGUAUGUGAUUUGTT against 4921520P21Rik”, the z-score is inactive: 0.914.

Consider GGGAAAUCACUGGACCAGUTT against BC021513, for which the z-score is inactive: 0.324.

GGCAGACAUGAAAUGCAUUTT against BC010311: the z-score is inactive: 0.427.

On to GGACUUCGAGGACUACAUUTT against Abca3, for which the z-score is inactive: -1.52.

Turning to GCCAGAUUUCCGUCAGAACTT against Scube3, the z-score was inactive: -1.92.

As to GGAAUAGUGAAGGUACUUUTT against Cer1, the z-score was inactive: -0.0479.

With “GGCUGAACUAAACUCCACCTT against 1810011O16Rik”, the z-score is inactive: 0.861.

As for “GGCCUUUUAAAUGUGUCCUTT against 6430601A21Rik”, the z-score was inactive: 1.55.

For GCUUAACUGCCAUUCUGAATT against BC032265, the z-score was inactive: 0.113.

As to GCUAAAUGUUCUUCCAUUATT against Pola1, the z-score was inactive: -1.13.

In the case of “GGAAUUAUGAUGUAGACAGTT against 4931406P16Rik”, the z-score is inactive: 1.8.

GGAUUUGAGGUUCAUAUAATT against Ccrk: the z-score is inactive: 0.857.

Take GGAGACACGGAAGCCUGAATT against Klra4: the z-score was inactive: -2.75.

CCGUGGGCAAACAAAUCUUTT against Hoxa3: the z-score is inactive: -0.289.

On to CCUAAUAAAAUCGAAACAGTT against Alox15b, for which the z-score was inactive: -2.01.

For GGAUACGCUUGUCCCACCATT against Mdm1, the z-score was inactive: -1.86.

For the sequence CCCUCAGUUUUACUGUUUATT against Pip5k2a, the z-score is inactive: 0.307.

As to CCAUCAGCUUUGCAGGAUGTT against Olfr1410, the z-score was inactive: -0.631.

As for CCAAAUCUGGACGGCAAAATT against Sdc1, the z-score is inactive: -2.22.

In the case of “CGGGCCAUUAACAACCUCUTT against 4930433I11Rik”, the z-score was inactive: 1.09.

CCCUACCCAGUUUCAGUUGTT against Phf12: the z-score is inactive: -0.0533.

As for GCGACUUAUGAAAUACUGGTT against Ache, the z-score is inactive: -0.689.

Take “GGCCAGAACCACCAAAGAATT against 3110050N22Rik”: the z-score is inactive: -1.52.

As to GGAGGUGCGCUUCUUUAACTT against Chst5, the z-score is inactive: 1.44.

Turning to GGACUUCUUCUUGUACAACTT against Capn3, the z-score is inactive: 0.356.

As to “GGUAUCAGGAUAAUAUAGATT against E230025K15”, the z-score was inactive: 0.0821.

Take CGUGUGUGUUAUGAAUCAATT against BC021367: the z-score is inactive: 0.0306.

On to GCCCUACUGUAUUGUUAGCTT against Lamb1-1, for which the z-score was inactive: 0.285.

With GGAAUCAAUGUGCUUCUAATT against Cyp39a1, the z-score is inactive: 0.386.

On to GCUAGUAAACAGAAUCCUCTT against Tubgcp2, for which the z-score is inactive: 1.73.

Turning to GGAGGUAGGAGCCAUAAGATT against Pter, the z-score is inactive: -0.546.

As to GGAGUUCUUCUAGCCAUGUTT against Olfr633, the z-score was inactive: -1.

Regarding “GGAACUGAUUCUUAGCUACTT against 9430028I06Rik”, the z-score was inactive: -0.0424.

With GGUGAGGAGGCAAAGAUUCTT against Fkbpl, the z-score was inactive: -0.64.

Take GUACCCAAAAUGUUGAUGATT against Olfr979: the z-score is inactive: 1.39.

As to CCUUACUCAUCUCAACUUATT against Plekhe1, the z-score is inactive: -0.211.
